{"source": "PubChem BioAssay AID1347423", "about": "(Functional Genomics Laboratory (NCATS/FGL), 2020)", "note": "About 210 (0.4%) of roughly 52,000 sequences were called active.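 How the source made its calls: active means gene whose silencing raises cell survival under the drug, median off-target-corrected z-score across its silencing RNAs 2 or more; inactive means the rest.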 This is one part of the list.", "data": [{"assay": "Resistance to Poly (ADP-Ribose) Polymerase inhibitor: Gene Identification via Genome-wide siRNA Screen", "settings": "mouse BRCA2 R2336H ES cells, olaparib, CellTiter-Glo viability; stronger effect = higher value", "procedure,_shortened": "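Mouse BRCA2 R2336H ES cells were reverse-transfected with siRNA (20 nM final), treated at 48 h with 500 nM olaparib, and read by CellTiter-Glo after 72 h. Scores: MAD-based z per siRNA, median per gene, seed off-target correction.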", "values": [{"sequence": "GGUUAUCAAGAAAAUUGGGTT against Exo1", "z-score": "inactive: -0.156"}, {"sequence": "GGCCAUCGAUUUUGAAUACTT against 5830446M03Rik", "z-score": "inactive: -0.0599"}, {"sequence": "GUGACAGGAUAUGUUUCUATT against Cd226", "z-score": "inactive: 0.503"}, {"sequence": "GGUUUGGAGAUAUCGUGGGTT against Bmper", "z-score": "inactive: 0.801"}, {"sequence": "GGGACAUCAAUCGUAUUUUTT against Adar", "z-score": "inactive: -0.524"}, {"sequence": "GGAAACAACAACAAAUACATT against C1ql3", "z-score": "inactive: -0.604"}, {"sequence": "GGUCUUUCCCAGGAUUCCATT against Rab19", "z-score": "inactive: -1.98"}, {"sequence": "GGCAUGAAGUUUGAAGCCATT against Cnnm2", "z-score": "inactive: 0.156"}, {"sequence": "GCGGGUAACCUCAUGUCUUTT against Phyhip", "z-score": "inactive: 0.347"}, {"sequence": "GGUGGAAACAGAAUGGUACTT against Cntn6", "z-score": "inactive: -0.295"}, {"sequence": "CGACGAAGACGUGAACAAGTT against Trappc3", "z-score": "inactive: -2.14"}, {"sequence": "CGCACAGAGAAUAAGGGAATT against Tcta", "z-score": "inactive: 0.956"}, {"sequence": "GGCAGUUUUAUGAACUAUUTT against AI854635", "z-score": "inactive: 0.377"}, {"sequence": "GGAUGGUAACCAUCAUAUUTT against V1ra9", "z-score": "inactive: -0.292"}, {"sequence": "GGAACCUUUUAUUCAAGAATT against Cklfsf3", "z-score": "inactive: 1.06"}, {"sequence": "GGCCUGGUGCUACUUCUCATT against 4632419K20Rik", "z-score": "inactive: -2.2"}, {"sequence": "GGCUGGUGAAAGUCAAGGUTT against Rbbp1", "z-score": "inactive: -0.247"}, {"sequence": "GCUUUUGGGUUGUAAGAGATT against Ralgps2", "z-score": "inactive: 0.0808"}, {"sequence": "GGACAUGUUGGAGAAGCAATT against B3galt6", "z-score": "inactive: 1.43"}, {"sequence": "CCAGAAAAAAGAUUGUACATT against Hesx1", "z-score": "inactive: 0.891"}, {"sequence": "GGAGUGGGAAAACAACAAATT against Cpxm1", "z-score": "inactive: 0.176"}, {"sequence": "GCAACAAUUGCUAGCGUGGTT against Sec23ip", "z-score": "inactive: 1.12"}, {"sequence": "UUUACUAGACCUGAUGGCUTT against Olfr815", "z-score": "inactive: 0.0206"}, {"sequence": "GGAUCUCAGCUUCACUCCUTT against Noc4", "z-score": "inactive: 0.818"}, {"sequence": "GGGCAUAUUCAAACUUGUGTT against Elf2", "z-score": "inactive: 0.52"}, {"sequence": "GCAGUUCUCAUACUAUCAUTT against Gm1082", "z-score": "inactive: -0.986"}, {"sequence": "GCCGCUGCACACUUUCUAUTT against 4732463G12Rik", "z-score": "inactive: -1.18"}, {"sequence": "GCCCUUAGCUGCAUGAAUUTT against Laptm4b", "z-score": "inactive: 1.41"}, {"sequence": "GCUGCCCGACCAAACAUUUTT against Mtch1", "z-score": "inactive: -0.769"}]}]}
